The other results are listed elsewhere or left out. The data scatter; read single values as rough.
Legend:
[1] = compound: ClCC(=O)N[C@@H]1CCCc2ccccc12; assay: log2 mean competition ratio of IA-DTB cysteine labelling (DMSO/compound) (log2 ratio); higher = stronger cysteine engagement by compound; details: treatment time: 4 h, cell line lysate: HEK293T
Protocol: (§1)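 IA-DTB competitive cysteine chemoproteomics in HEK293T RIPA lysate. Lysates were treated with compound 29 or 30 at 50 or 200 µM for 4 h, then IA-DTB (500 µM, 1 h), trypsin-digested, NeutrAvidin-enriched and analysed by diaPASEF. Competition ratio = intensity DMSO / intensity compound (n=4 treated, n=64 DMSO); binding: mean log2 CR ≥ 1 and p ≤ 0.05 plus QC filters. Target is the cysteine site.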

Sequences of proteins named here, by UniProt entry; tags and fusion partners are left off. A change or cut given only in a name is not applied to a line headed by its entry. Residues count along the entry.
UniProt O75170: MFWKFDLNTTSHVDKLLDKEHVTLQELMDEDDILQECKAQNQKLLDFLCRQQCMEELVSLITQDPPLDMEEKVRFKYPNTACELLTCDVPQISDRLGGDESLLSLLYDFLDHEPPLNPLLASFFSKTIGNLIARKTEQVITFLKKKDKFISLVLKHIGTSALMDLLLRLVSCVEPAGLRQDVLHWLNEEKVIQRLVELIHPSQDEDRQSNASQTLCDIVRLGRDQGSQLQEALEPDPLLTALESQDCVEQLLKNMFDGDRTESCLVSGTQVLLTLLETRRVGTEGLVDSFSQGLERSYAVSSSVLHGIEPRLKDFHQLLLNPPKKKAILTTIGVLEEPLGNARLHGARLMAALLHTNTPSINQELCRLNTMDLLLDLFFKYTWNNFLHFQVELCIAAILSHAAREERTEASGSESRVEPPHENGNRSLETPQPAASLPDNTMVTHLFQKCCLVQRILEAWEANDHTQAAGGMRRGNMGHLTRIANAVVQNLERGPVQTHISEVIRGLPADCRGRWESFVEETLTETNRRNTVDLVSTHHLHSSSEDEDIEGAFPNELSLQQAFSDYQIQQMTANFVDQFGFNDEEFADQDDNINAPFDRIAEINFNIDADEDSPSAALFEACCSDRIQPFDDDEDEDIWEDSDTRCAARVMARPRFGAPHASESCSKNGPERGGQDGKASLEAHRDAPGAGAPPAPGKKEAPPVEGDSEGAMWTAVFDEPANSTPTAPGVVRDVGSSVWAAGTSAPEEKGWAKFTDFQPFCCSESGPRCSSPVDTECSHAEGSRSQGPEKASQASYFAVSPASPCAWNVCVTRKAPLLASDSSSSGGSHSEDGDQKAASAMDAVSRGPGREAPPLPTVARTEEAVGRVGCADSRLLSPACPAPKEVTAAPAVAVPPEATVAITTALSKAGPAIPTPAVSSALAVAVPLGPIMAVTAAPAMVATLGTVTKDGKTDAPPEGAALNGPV
UniProt P78527, whole entry, looked up: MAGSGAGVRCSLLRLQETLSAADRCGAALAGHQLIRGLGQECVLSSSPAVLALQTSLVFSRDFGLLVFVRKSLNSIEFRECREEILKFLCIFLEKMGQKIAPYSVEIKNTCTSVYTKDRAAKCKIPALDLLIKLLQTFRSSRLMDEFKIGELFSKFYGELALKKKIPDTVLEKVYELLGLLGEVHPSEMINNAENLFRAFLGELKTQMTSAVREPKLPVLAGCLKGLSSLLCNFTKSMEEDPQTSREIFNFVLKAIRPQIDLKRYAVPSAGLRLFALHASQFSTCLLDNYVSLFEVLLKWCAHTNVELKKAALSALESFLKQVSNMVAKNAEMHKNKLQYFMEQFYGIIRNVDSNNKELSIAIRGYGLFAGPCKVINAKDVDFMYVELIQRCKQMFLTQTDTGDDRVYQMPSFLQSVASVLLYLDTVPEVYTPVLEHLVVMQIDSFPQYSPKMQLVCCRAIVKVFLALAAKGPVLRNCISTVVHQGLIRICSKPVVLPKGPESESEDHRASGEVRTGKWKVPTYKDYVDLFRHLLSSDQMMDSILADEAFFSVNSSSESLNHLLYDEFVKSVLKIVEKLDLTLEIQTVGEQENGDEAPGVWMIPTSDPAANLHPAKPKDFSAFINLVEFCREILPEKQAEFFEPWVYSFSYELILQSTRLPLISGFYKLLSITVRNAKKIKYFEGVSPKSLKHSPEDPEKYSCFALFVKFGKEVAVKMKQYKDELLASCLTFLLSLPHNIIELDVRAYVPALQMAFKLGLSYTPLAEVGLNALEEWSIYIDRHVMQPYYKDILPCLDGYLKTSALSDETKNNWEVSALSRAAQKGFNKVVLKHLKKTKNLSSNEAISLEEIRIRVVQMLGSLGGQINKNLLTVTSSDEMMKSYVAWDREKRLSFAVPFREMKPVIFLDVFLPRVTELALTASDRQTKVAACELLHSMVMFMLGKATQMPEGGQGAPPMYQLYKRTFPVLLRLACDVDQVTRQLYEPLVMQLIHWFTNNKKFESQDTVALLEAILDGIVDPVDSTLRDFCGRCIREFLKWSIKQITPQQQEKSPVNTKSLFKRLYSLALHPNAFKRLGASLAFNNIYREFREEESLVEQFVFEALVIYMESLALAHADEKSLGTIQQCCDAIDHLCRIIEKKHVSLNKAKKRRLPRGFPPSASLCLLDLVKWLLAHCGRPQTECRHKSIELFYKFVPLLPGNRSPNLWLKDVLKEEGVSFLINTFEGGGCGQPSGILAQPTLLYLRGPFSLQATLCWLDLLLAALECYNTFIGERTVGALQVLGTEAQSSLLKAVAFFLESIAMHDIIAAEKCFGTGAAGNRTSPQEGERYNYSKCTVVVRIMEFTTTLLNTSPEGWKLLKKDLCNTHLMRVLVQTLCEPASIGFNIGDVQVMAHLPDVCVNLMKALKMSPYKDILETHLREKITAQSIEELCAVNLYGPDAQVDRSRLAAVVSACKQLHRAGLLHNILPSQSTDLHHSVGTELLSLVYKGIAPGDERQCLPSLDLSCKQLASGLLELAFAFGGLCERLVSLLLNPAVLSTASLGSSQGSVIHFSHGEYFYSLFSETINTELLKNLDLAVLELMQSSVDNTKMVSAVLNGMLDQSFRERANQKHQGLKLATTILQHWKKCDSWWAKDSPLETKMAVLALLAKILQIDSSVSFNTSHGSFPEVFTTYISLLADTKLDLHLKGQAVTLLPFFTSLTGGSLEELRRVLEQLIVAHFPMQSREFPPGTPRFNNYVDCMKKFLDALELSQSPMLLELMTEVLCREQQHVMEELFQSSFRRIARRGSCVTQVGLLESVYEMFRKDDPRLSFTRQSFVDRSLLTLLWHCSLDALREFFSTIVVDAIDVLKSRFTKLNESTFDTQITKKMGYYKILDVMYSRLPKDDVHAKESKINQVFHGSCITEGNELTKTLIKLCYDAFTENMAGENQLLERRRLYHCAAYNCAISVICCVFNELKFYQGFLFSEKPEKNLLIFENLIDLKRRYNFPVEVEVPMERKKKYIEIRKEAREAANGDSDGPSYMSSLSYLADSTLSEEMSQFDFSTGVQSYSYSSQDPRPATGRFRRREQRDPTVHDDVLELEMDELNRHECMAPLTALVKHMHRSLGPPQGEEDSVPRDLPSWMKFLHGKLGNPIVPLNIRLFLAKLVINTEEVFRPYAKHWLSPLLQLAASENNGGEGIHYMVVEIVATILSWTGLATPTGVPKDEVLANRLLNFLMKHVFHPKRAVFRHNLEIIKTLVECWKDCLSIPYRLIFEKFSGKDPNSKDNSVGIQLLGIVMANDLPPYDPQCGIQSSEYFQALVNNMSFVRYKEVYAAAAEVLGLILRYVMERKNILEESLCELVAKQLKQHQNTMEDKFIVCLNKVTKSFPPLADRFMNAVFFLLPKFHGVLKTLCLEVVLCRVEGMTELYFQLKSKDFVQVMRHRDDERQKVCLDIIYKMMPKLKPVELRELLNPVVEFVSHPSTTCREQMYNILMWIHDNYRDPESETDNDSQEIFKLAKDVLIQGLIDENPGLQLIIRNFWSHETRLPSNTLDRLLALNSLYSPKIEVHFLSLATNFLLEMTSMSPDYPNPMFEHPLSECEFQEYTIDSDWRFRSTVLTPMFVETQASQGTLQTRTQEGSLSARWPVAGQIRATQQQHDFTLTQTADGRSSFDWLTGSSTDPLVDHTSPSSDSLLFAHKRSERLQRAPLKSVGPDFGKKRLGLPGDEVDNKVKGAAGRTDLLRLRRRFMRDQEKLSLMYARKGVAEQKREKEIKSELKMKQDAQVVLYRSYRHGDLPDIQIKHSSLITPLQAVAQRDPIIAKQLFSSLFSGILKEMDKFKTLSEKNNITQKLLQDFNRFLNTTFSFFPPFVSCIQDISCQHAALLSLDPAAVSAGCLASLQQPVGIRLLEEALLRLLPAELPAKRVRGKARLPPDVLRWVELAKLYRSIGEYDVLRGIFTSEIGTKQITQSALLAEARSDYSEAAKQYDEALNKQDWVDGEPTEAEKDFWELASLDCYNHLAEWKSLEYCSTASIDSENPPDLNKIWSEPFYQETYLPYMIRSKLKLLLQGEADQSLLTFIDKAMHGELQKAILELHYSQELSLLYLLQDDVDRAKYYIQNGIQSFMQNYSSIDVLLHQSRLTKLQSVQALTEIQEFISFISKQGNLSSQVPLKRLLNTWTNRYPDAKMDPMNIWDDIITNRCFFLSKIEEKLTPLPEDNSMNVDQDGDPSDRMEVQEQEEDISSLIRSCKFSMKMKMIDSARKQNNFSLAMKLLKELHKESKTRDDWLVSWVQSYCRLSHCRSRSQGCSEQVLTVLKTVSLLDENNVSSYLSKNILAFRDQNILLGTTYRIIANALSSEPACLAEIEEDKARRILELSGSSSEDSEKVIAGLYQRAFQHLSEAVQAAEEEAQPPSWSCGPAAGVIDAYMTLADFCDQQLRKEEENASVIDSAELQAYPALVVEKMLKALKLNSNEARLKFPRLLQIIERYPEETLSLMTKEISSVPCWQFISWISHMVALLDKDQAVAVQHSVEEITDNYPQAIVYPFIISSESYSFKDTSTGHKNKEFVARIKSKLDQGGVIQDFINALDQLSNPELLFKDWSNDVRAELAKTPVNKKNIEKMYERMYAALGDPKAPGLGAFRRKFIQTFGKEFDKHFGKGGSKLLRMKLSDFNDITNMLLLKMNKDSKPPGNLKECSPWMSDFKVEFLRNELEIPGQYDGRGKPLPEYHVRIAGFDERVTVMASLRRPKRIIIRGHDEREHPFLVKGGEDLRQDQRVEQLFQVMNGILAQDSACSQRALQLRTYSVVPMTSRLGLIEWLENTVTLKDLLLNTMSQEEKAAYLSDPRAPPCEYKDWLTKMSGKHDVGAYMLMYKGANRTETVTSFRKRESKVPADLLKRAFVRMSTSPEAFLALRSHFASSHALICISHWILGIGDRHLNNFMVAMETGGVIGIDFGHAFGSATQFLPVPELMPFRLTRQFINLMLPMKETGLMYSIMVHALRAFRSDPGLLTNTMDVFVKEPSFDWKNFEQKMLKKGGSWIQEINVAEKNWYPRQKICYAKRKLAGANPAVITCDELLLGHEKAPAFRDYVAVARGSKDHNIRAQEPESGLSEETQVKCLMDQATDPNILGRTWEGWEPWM
UniProt P78527, 1423-1445: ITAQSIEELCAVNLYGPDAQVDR
UniProt Q14738, whole entry, looked up: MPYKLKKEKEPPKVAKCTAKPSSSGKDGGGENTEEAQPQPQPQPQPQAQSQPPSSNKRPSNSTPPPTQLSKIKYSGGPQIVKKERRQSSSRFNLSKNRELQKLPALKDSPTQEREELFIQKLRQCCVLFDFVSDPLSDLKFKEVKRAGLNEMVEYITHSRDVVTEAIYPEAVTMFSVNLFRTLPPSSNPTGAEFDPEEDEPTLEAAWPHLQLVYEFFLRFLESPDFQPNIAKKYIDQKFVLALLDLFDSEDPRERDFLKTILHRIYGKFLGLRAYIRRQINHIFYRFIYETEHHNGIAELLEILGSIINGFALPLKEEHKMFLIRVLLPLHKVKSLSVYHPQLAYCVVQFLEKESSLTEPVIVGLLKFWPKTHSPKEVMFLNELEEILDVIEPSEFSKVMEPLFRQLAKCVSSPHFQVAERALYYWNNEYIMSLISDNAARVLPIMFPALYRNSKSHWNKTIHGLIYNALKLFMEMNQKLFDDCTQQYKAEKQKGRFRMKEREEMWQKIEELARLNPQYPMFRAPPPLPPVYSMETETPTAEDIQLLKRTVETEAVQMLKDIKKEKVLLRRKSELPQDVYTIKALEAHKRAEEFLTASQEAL
UniProt P30044, 192-214: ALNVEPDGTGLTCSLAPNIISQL
UniProt Q6P2P2: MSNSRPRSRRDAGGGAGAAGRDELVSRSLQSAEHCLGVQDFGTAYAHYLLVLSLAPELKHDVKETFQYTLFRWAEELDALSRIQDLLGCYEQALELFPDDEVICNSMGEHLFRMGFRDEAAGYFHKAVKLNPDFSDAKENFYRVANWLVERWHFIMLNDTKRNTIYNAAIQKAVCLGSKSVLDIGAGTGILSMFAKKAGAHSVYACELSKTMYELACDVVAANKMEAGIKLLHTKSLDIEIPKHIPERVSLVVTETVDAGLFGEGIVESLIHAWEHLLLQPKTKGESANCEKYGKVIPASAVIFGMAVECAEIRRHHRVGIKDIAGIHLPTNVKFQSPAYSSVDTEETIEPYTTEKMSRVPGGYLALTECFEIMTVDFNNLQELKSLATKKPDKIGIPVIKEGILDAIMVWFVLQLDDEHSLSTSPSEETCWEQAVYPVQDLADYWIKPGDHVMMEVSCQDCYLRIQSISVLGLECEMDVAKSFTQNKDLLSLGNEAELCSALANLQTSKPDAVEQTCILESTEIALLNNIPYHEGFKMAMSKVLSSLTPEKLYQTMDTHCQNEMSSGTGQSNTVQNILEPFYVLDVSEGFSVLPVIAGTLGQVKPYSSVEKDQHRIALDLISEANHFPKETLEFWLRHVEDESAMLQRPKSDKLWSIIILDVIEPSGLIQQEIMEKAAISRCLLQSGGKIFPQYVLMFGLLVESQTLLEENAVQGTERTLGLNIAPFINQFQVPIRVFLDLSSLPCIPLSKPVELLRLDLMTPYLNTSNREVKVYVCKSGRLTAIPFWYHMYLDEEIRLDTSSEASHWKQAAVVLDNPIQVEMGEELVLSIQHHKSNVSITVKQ

[2] = compound: ClCC(=O)N[C@H]1CCCc2ccccc12; assay: as above; details: treatment time: 4 h, cell line lysate: HEK293T
Protocol: as §1

Target	log2 mean competition ratio ([1]; 50 µM)	log2 mean competition ratio ([1]; 200 µM)	log2 mean competition ratio ([2]; 50 µM)	log2 mean competition ratio ([2]; 200 µM)
PPP6R2 C870 (UniProt O75170)	-0.19	0.202	-0.122	0.298
PPP2R5E C121 (UniProt Q16537)	0.0465	0.112	-0.0949	0.0533
POLR3E C616 (UniProt Q9NVU0)	0.486	0.349	-0.089	0.284
POLR3B C815 (UniProt Q9NW08)	0.186	0.0525	0.013	-0.472
PPP1R3D C60 (UniProt O95685)	-0.0393	0.0561	-0.0652	0.237
PPP2CA C20	-0.113	0.254	0.0663	0.357
PRKDC C1629 (UniProt P78527)	0.198	-0.306	0.117	-0.0457
PRKAG1 C38 (UniProt P54619)	-0.143	0.0635	-0.261	0.027
POT1 C329 (UniProt Q9NUX5)	0.604	0.165	0.508	0.26
PPP1R3D C41 (UniProt O95685)	0.366	0.0229	0.421	-0.14
PPP6R3 C830 (UniProt Q5H9R7)	-0.0656	0.172	0.097	0.412
PPP4R2 C134 (UniProt Q9NY27)	-0.0579	-0.288	0.0916	-0.194
PRKRA C77 (UniProt O75569)	-0.352	0.0594	-0.00985	-0.0912
PRDX6 C91 (UniProt P30041)	0.932	0.31	1.12	0.336
PRKAA2 C174 (UniProt P54646)	0.254	-0.127	0.722	0.0479
PPP2CA C133	-0.418	0.144	0.534	0.213
POLR2A C13	0.46	0.671	0.199	0.494
PRPF8 C435 (UniProt Q6P2Q9)	-0.116	0.0618	-0.156	0.0312
PRPF6 C913 (UniProt O94906)	-0.0565	0.145	0.442	0.0193
PPP6R2 C665 (UniProt O75170)	0.059	0.152	0.179	0.113
PPM1L C340 (UniProt Q5SGD2)	0.12	0.208	-0.34	
PPIP5K2 C779	-0.112	-0.412	0.355	-0.0722
POLR2A C1245	-0.311	0.273	-0.501	0.378
PRPS2 C165 (UniProt P11908)	-0.0659	-0.392	-0.166	-0.302
PRICKLE3 C366 (UniProt O43900)	-0.219	-0.474	-0.294	0.128

Target	log2 mean competition ratio ([1]; 50 µM)	log2 mean competition ratio ([1]; 200 µM)	log2 mean competition ratio ([2]; 50 µM)	log2 mean competition ratio ([2]; 200 µM)
POLR3B C973 (UniProt Q9NW08)	0.0161	0.123	-0.133	0.107
POLRMT C1192 (UniProt O00411)	-0.0477	0.0256	0.123	-0.0446
PRKCSH C471	-0.0703	0.127	-0.237	0.111
PPM1D C478	-0.373	-0.304	0.0838	-0.0343
PRKD2 C74	-0.0951	0.175		0.239
POLRMT C726 (UniProt O00411)	-0.00281	-0.291	0.81	-0.322
POLR3A C1154 (UniProt O14802)	-0.0106	-0.144	0.162	-0.0713
PRR14L C1027 (UniProt Q5THK1)	0.0777	-0.0812		-0.213
PPP4R1 C566 (UniProt Q8TF05)	-0.188	0.613	-0.171	0.225
PPP2R5C C513 (UniProt Q13362)	0.23	-0.0827	0.133	-0.143
PRKRA C106 (UniProt O75569)	-0.28	0.0674	-0.45	-0.0549
PRKDC C111 (UniProt P78527)	0.000267	-0.0129	-0.00579	0.0392
PPP2R5D C484 (UniProt Q14738)	-0.0997	-0.192	-0.36	-0.163
PRDX5 C204 (UniProt P30044)	-0.216	-0.947	0.0722	-0.437
PRPF6 C522 (UniProt O94906)	0.288	-0.0434	0.26	0.0862
PRPF3 C630 (UniProt O43395)	0.132	0.0581	-0.0521	0.0776
POLR3A C1174 (UniProt O14802)	-0.511	-0.195	-0.552	-0.348
PRPS1 C165	-0.0896	-0.284	-0.194	-0.183
PRKDC C1432 (UniProt P78527)	-0.227	0.06	-0.164	-0.0838
PPIL4 C426 (UniProt Q8WUA2)	-0.0576	-0.0479	0.065	-0.019
PPP2R3C C17 (UniProt Q969Q6)	0.00982	0.142	0.105	0.172
PRMT9 C175 (UniProt Q6P2P2)	-0.0966	0.118	0.0754	0.129
PPP6R3 C836 (UniProt Q5H9R7)	-0.0432	0.581	-0.0526	0.589
PPOX C258 (UniProt P50336)	0.269	0.0427	0.759	0.237

Some entries already given with just log2 mean competition ratio ([2]; 50 µM), log2 mean competition ratio ([1]; 50 µM) and log2 mean competition ratio ([2]; 200 µM):
Target	log2 mean competition ratio ([2]; 50 µM)	log2 mean competition ratio ([1]; 50 µM)	log2 mean competition ratio ([2]; 200 µM)
PRKCSH C471	-0.237	-0.0703	0.111
PPM1D C478	0.0838	-0.373	-0.0343
